Binding signal data for 42 sequences are collected here from publication PMC7819943, “Rice protein-binding microarrays: a tool to detect cis-acting elements near promoter regions in rice”.

Sequences of proteins named here, by UniProt entry; tags and fusion partners are left off.
UniProt Q0JBA9, entry or part of it: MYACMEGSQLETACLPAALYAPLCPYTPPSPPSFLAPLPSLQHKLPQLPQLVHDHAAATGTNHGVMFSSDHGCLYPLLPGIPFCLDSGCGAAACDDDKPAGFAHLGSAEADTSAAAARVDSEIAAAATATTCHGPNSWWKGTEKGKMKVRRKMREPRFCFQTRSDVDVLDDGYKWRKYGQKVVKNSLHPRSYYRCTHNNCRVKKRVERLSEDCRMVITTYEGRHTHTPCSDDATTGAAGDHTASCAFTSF

This is one part of the list.

This test deals with OsWRKY34 (Oryza sativa, UniProt Q0JBA9 1-250). Kind of test: protein-binding microarray (RPBM); PBS, 2% BSA, 51.3 ng/ul salmon testes DNA, 50 uM zinc acetate, 200 nM TF, 25 C, 1 h; high values mean tight binding. As to conditions: protein: recombinant; tags: N-terminal polyhistidine and DsRed monomer fusion (pET32a); label: CyDye5-dUTP incorporated in the synthesized complementary strand; 3' TTTTT single-stranded linker to array surface; dsDNA, one strand shown. The method, boiled down: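 Using Ni–NTA, transcription factors fused N-terminally to polyhistidine and DsRed were purified after expression in E. coli BL21-CodonPlus. These were incubated at 200 nM with a blocked, double-stranded custom Agilent array for 1 h at 25 °C in a buffer containing 50 µM zinc acetate, and the array was washed. The binding signal is per-feature fluorescence intensity (arbitrary units) on an Axon 4000B scanner.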
For the sequence “AGTTCGCTGATCACCCAATCACCATTCGGTCTTCCATTCACGGAGTCACCTAGTGCAG”, the binding signal is 9900 fluorescence intensity (a.u.).

Consider “TGCTGCCGCCTTGTGTATAGCCTTGTGTATCTCCTTTGGCCGGAGTCACCTAGTGCAG”, for which the binding signal is 8310 fluorescence intensity (a.u.). Then “TAGTTCATCCTTGACATCAAGTGGGTTGCTAGTCTCATTCCGGAGTCACCTAGTGCAG”, with 9450 fluorescence intensity (a.u.); and “TATCTGCCATTAATCATTGACTTGTACATCTGTCTTGCTACGGAGTCACCTAGTGCAG”, with 9400 fluorescence intensity (a.u.); and “AATAAGACGAACGATCAAACATGTTTAAAAAAGTCAACGGCGGAGTCACCTAGTGCAG”, with 9200 fluorescence intensity (a.u.). To “TCATGTATAATTTTTCATTTTCCATTTATTACCGTCATCTCGGAGTCACCTAGTGCAG” belongs 8260 fluorescence intensity (a.u.). Regarding “ATTCCTTGATTTGTAACGTTCTTCTTGCATCTATTCTTCACGGAGTCACCTAGTGCAG”, the binding signal was 9540 fluorescence intensity (a.u.).

For the sequence “CCGCTTCTCTCTCTCTCTCTCTCTCTCTCTCTTTCTCTCTCGGAGTCACCTAGTGCAG”, the binding signal is 11800 fluorescence intensity (a.u.).

As to “GTAAGGCCCTGTTTAGACCCTATCTAAAAATTTTCACTCTCGGAGTCACCTAGTGCAG”, the binding signal is 8690 fluorescence intensity (a.u.). To “AAGTTTTAGTAAATACACACAATACATCATTTTTTCGAAACGGAGTCACCTAGTGCAG” belongs 11200 fluorescence intensity (a.u.); to “TTCGATTCCAATTCCAGTTCGTCTCGCTCGCCGCCAAATCCGGAGTCACCTAGTGCAG”, 11600 fluorescence intensity (a.u.). To “CCACAGGCTACTTCGCATCGCATCGCCTCACCCCGCCGCCCGGAGTCACCTAGTGCAG” belongs 9080 fluorescence intensity (a.u.). “TGCTACATCGATCGAGCTTACTAGCTTTCCATCATCCCACCGGAGTCACCTAGTGCAG”: the binding signal is 8740 fluorescence intensity (a.u.). Then “TCTGCTGTTTGAATTTCGAACCTTTTTTTTTGAAGTCCTTCGGAGTCACCTAGTGCAG”, with 9180 fluorescence intensity (a.u.); and “AGGCCCCATCACAATCTCCTCCTGTCCTGCCCGGTGTTTCCGGAGTCACCTAGTGCAG”, with 8140 fluorescence intensity (a.u.); and “ATAAATTTTCAACTTTTCTGTTATATCGTTTTAATTTCAACGGAGTCACCTAGTGCAG”, with 8650 fluorescence intensity (a.u.).

Consider “CTTTAGTCAAAGTCAAACTACTCTAAGTTTGACTAACTCTCGGAGTCACCTAGTGCAG”, for which the binding signal was 13500 fluorescence intensity (a.u.). To “GGCTATCGTTGGGGATGCAACACCTCAACCTGTCCAGCAACGGAGTCACCTAGTGCAG” belongs 8340 fluorescence intensity (a.u.). To “CCGTCGAGTCCAACCCGCCGCCGGTCCGCCGCCATCCCGCCGGAGTCACCTAGTGCAG” belongs 8220 fluorescence intensity (a.u.); to “GCCTTGTTTAGTTGGGGAAAATTTTTGGGTTTGATTATCACGGAGTCACCTAGTGCAG”, 10800 fluorescence intensity (a.u.); to “TCCAAACTATTGAGTCATCCTATGTAACTTTTTTTTTGTTCGGAGTCACCTAGTGCAG”, 9080 fluorescence intensity (a.u.). For “CATCTCAGTGTGTTGTGGCAAATCTATTTCGTTTTTCTAACGGAGTCACCTAGTGCAG”, the binding signal was 8400 fluorescence intensity (a.u.).

With “TGGATCTTGTGTACGATTTCTGTACTTCAATACATATCTTCGGAGTCACCTAGTGCAG”, the binding signal was 8192 fluorescence intensity (a.u.). Then “ACCGTGTGTCCGTTTGACTCCGTTCAACTTCCAAAATTCCCGGAGTCACCTAGTGCAG”, with 8320 fluorescence intensity (a.u.); and “ACCGCGTCGGCGTCGCCGCCGCCACCGCCGCCCGCCACCTCGGAGTCACCTAGTGCAG”, with 8050 fluorescence intensity (a.u.). Then “CATATATTTCTTCTCGCCTACATGTGAGTCCCGCATTACTCGGAGTCACCTAGTGCAG”, with 9110 fluorescence intensity (a.u.); and “AATCACCATCATCGCTGTTTGGGAGGGTCTGCCTGGCTTACGGAGTCACCTAGTGCAG”, with 13100 fluorescence intensity (a.u.); and “CGTATAAGCGTGGTGTGGTTGTTTATTTTCTTTTTCCTGACGGAGTCACCTAGTGCAG”, with 10300 fluorescence intensity (a.u.). To “ATGGGCCTTCATCAGTTTGATGTTTGCATATAATATTGCCCGGAGTCACCTAGTGCAG” belongs 9310 fluorescence intensity (a.u.). Consider “AGAACCCTACATCTCATCTTCCACCACAGCAATCTCTCAACGGAGTCACCTAGTGCAG”, for which the binding signal was 11100 fluorescence intensity (a.u.). To “TAATTTTCCATTGTTTTTCTCCATGTATGTGGGCTACCTTCGGAGTCACCTAGTGCAG” belongs 10000 fluorescence intensity (a.u.).

“GACGCATGGCAATGTACATATTTGCTGCCCGTACCTTTCGCGGAGTCACCTAGTGCAG”: the binding signal is 8060 fluorescence intensity (a.u.). To “GTATAAAAATCCTCGTCTCTGTCTCTTTTACTACAATCTTCGGAGTCACCTAGTGCAG” belongs 8120 fluorescence intensity (a.u.). To “GATCGAAACATCACAAAATCATATCTTGTCGCTTTCTCAACGGAGTCACCTAGTGCAG” belongs 9210 fluorescence intensity (a.u.); to “TATGTTCGAAATTTGCAAGTATTGTCCTCTTCATAAACTCCGGAGTCACCTAGTGCAG”, 8070 fluorescence intensity (a.u.). Then “GTACCCATGCTATCATCGGTTCCATGCATCTCATCCTTCACGGAGTCACCTAGTGCAG”, with 11800 fluorescence intensity (a.u.); and “GTCTTCTCTTTTTATCTCCTCAATATGTGTTTATAGCTGGCGGAGTCACCTAGTGCAG”, with 8340 fluorescence intensity (a.u.); and “CAGTCAGTCAGTAGGTTCCCAGAATTTTCTCCCTGCAAACCGGAGTCACCTAGTGCAG”, with 8050 fluorescence intensity (a.u.).

With “GTTGTCTTGCTGAGTTGGTTATATTTTGCAGAATATTCGGCGGAGTCACCTAGTGCAG”, the binding signal was 11000 fluorescence intensity (a.u.). To “AACTTCTACTCTTATTTTTCACGTGCACGCTTTAACTTTTCGGAGTCACCTAGTGCAG” belongs 13100 fluorescence intensity (a.u.). Then “ATAATGTCGTTGATTTTTACATACCTTTAAGTATTTACCTCGGAGTCACCTAGTGCAG”, with 8030 fluorescence intensity (a.u.); and “ATACATATTTTTTTCTCTATTTCTGCCCAACATGTTTTTCCGGAGTCACCTAGTGCAG”, with 8950 fluorescence intensity (a.u.).
